Measured values from the supplement of paper PMC10849652.
The other results are listed elsewhere or left out.

The chains behind the UniProt entries cited, without tags or fusion partners. Where a name states a change or a piece, a line headed by the entry shows the natural chain unless it says otherwise.
UniProt Q14CW9: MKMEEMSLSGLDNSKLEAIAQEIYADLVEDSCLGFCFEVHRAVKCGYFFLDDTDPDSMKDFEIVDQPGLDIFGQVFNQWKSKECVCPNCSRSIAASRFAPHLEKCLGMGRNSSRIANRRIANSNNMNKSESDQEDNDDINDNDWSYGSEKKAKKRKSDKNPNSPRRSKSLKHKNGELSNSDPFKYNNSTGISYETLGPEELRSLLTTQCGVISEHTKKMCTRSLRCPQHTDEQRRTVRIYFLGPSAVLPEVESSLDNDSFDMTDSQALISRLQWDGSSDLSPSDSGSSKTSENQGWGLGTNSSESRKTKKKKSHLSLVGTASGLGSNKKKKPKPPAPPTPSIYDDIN
UniProt Q67FW5: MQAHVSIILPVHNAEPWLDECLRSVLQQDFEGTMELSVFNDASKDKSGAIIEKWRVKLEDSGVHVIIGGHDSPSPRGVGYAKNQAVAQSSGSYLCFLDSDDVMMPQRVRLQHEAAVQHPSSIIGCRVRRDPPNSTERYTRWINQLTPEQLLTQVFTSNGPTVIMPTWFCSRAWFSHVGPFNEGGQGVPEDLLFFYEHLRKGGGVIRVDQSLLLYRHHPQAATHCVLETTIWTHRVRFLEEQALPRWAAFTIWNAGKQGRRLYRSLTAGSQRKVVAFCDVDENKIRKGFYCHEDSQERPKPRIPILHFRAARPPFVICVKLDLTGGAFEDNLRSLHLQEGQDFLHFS
UniProt Q6P4H8: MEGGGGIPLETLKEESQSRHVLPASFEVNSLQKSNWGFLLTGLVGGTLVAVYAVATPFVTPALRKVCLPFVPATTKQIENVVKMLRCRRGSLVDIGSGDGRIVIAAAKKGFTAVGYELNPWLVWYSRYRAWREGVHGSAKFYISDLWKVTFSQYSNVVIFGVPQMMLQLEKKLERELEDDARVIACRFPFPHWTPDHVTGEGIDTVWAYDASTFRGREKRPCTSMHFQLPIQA
UniProt Q99941: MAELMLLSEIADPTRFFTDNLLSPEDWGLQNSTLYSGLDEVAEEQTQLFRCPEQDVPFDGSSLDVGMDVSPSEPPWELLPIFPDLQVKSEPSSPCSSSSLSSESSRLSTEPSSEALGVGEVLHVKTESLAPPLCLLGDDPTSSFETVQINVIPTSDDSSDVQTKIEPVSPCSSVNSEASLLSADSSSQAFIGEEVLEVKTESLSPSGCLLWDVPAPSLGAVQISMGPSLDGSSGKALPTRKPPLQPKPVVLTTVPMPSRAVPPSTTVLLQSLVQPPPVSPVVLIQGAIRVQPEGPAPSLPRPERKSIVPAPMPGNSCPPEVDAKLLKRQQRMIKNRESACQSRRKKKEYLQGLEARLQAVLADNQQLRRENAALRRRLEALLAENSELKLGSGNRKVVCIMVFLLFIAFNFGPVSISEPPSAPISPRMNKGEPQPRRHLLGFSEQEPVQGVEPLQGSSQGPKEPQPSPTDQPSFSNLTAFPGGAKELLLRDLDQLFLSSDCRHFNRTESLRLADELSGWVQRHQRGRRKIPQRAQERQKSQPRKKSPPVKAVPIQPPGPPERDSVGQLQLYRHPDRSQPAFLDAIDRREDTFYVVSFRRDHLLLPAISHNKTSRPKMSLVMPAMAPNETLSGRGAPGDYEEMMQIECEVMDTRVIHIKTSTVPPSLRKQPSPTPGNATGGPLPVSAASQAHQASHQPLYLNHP
UniProt Q9Y575: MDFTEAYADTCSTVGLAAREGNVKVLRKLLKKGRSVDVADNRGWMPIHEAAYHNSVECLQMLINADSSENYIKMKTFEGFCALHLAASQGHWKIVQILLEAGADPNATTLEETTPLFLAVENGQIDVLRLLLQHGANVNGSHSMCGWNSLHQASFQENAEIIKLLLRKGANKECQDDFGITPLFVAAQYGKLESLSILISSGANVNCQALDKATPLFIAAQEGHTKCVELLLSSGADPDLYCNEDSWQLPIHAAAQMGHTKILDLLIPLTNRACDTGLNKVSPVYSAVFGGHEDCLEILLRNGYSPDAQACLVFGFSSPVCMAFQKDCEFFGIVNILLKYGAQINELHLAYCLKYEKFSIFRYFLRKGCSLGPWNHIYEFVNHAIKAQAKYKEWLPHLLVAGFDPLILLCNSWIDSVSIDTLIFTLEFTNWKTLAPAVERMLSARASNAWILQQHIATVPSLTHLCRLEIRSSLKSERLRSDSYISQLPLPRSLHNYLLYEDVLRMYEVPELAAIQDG
UniProt P18850: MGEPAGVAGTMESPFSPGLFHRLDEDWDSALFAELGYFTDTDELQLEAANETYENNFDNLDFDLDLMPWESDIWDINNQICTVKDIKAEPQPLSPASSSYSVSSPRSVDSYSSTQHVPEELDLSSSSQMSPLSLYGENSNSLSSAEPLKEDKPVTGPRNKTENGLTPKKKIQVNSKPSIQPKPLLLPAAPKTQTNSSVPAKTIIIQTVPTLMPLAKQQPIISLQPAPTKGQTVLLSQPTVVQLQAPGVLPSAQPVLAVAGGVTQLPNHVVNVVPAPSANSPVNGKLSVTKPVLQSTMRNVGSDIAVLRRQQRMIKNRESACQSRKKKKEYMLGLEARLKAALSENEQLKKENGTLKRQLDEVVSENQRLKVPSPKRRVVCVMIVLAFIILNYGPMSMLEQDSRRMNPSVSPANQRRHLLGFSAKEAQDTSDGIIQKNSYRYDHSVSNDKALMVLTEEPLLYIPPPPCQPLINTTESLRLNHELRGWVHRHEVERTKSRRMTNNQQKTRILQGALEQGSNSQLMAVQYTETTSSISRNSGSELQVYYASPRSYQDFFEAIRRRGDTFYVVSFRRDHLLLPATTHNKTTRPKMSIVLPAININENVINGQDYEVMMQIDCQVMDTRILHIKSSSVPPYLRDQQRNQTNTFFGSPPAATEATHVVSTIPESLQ
UniProt P98194: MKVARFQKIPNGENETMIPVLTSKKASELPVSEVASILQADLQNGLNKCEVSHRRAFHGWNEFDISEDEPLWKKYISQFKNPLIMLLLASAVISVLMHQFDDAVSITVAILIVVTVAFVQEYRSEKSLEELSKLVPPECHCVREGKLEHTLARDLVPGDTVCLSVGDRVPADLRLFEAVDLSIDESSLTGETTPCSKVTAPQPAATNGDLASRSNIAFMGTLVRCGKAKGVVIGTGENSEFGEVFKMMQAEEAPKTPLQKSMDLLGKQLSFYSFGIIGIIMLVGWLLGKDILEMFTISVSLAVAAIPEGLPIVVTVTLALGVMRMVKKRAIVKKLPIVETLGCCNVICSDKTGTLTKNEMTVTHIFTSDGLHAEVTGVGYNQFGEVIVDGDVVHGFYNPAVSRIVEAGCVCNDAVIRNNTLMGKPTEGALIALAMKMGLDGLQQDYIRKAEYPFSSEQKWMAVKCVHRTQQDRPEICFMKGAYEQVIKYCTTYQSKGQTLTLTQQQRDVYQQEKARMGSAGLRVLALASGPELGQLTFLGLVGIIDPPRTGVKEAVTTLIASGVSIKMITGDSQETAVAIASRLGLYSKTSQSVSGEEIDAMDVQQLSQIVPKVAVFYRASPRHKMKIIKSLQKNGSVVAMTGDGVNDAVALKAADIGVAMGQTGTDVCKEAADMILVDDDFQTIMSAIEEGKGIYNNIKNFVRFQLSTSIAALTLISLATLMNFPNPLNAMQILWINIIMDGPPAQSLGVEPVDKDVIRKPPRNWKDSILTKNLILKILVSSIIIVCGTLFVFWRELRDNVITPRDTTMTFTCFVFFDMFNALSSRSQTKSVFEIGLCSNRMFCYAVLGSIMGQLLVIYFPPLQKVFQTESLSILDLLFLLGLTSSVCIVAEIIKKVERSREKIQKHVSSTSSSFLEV
UniProt Q53RT3: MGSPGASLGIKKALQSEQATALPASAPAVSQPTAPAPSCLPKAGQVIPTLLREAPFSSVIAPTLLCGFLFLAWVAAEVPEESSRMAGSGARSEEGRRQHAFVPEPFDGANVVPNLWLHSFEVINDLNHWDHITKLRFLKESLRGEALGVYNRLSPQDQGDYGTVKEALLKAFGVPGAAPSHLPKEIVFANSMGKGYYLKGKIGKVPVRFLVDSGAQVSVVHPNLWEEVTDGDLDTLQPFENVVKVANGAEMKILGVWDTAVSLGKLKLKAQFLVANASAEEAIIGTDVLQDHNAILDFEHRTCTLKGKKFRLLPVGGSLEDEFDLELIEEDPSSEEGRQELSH
UniProt Q2TB18: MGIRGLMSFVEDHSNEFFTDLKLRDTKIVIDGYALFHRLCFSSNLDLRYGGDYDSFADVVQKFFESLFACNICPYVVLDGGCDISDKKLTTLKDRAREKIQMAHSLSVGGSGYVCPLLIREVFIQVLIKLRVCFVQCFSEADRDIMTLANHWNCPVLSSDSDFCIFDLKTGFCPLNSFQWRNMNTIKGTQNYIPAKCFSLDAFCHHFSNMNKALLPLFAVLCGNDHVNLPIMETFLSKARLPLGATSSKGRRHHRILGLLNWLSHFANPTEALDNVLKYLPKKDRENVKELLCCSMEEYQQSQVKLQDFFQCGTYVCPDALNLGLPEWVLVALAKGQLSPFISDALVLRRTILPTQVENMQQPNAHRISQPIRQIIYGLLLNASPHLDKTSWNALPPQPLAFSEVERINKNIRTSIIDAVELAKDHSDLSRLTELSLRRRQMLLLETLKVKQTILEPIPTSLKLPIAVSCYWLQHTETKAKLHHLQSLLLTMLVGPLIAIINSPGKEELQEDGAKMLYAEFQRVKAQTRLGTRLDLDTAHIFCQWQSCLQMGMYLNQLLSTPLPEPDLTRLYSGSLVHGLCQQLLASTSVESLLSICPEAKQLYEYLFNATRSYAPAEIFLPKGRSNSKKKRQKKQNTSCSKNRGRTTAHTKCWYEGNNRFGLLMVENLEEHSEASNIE

Assays:
Assay in all cases: log2 fold change, soluble protein after heating vs DMSO (PISA); higher = thermal stabilisation; K562 lysate, 10 uM; active = over 0.2 and 3.5 SD of the protein, either way, in both replicates (recomputed)
[1] = compound: O=C1NC(=O)C(c2cnc3ccccn23)=C1c1cn2c3c(cc(F)cc13)CN(C(=O)N1CCCCC1)CC2
Procedure, shortened: (§1)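 A 30 min treatment with 10 μM compound was applied to crude K562 extract at 1 mg/mL protein in PBS pH 7.4 with 1 mM MgCl2. Heating for 3 min spanned 48°C-58°C, after which aliquots were pooled, adjusted to 0.5% NP-40 at 4°C and spun at 21,000xg for 90 min. TMTpro 16plex LC-MS/MS of the supernatant, with channel sums equalised, gave values recorded as log-two fold change in thermal stability against solvent controls, from duplicates.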

entospletinib = compound: c1cn2cc(-c3ccc4cn[nH]c4c3)nc(Nc3ccc(N4CCOCC4)cc3)c2n1 [entospletinib]
Procedure, shortened: as §1

vorinostat = compound: O=C(CCCCCCC(=O)Nc1ccccc1)NO [vorinostat]
Procedure, shortened: as §1

silmitasertib = compound: O=C(O)c1ccc2c(c1)nc(Nc1cccc(Cl)c1)c1ccncc12 [silmitasertib]
Procedure, shortened: as §1

[2] = compound: NCC(=O)Nc1ccc(-n2nc(C(F)(F)F)cc2-c2ccc3c(ccc4ccccc43)c2)cc1
Procedure, shortened: as §1

ATG4D (UniProt Q86TL0)
log2 fold change [1]: inactive: 0.117 | log2 fold change (entospletinib): inactive: 0.004

ATP11C, A0A067XG54
log2 fold change (vorinostat): inactive: 0.246 | log2 fold change (silmitasertib): inactive: 0 | log2 fold change [1]: inactive: -0.001

ATXN7L3 isoform 2 (UniProt Q14CW9)
log2 fold change (vorinostat): inactive: -0.348 | log2 fold change (silmitasertib): inactive: -0.034 | log2 fold change [1]: inactive: -0.018

B3GNTL1 (UniProt Q67FW5)
log2 fold change [1]: inactive: 0.019 | log2 fold change (entospletinib): inactive: -0.065

ATP5F1B (UniProt H0YI37)
log2 fold change (vorinostat): inactive: 0.509 | log2 fold change (silmitasertib): inactive: -0.082 | log2 fold change [1]: inactive: 0.917

ATPSCKMT (UniProt Q6P4H8)
log2 fold change [1]: inactive: 0 | log2 fold change (entospletinib): inactive: 0.105

ATF6B (UniProt Q99941)
log2 fold change [1]: inactive: -0.054

ASB3 isoform 3 (UniProt Q9Y575)
log2 fold change [2]: inactive: 0.075 | log2 fold change (entospletinib): inactive: -0.026

ATF6 (UniProt P18850)
log2 fold change (vorinostat): inactive: -0.287 | log2 fold change (silmitasertib): inactive: 0.167 | log2 fold change (entospletinib): inactive: -0.014

ATP2C1 isoform 3 (UniProt P98194)
log2 fold change (vorinostat): inactive: 0.099 | log2 fold change (silmitasertib): inactive: 0.103

ASPRV1 (UniProt Q53RT3)
log2 fold change (vorinostat): inactive: 0.294 | log2 fold change (silmitasertib): inactive: -0.31

ASTE1 (UniProt Q2TB18)
log2 fold change [1]: inactive: -0.382
